Reference: PubChem BioAssay AID686938 (Drosophila RNAi Screening Center, 2013)
The screen tested about 23,000 reagents; this is a random part of those that have a named target and a result. In the full data, 75 (0.33%) are marked active. 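Raw plate signals without normalisation; calls rest on plate z-scores that were not deposited; ratio present for only 364 wells.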 Reagents against one gene are numbered here. Not given: the dose of the treatment.

- Purpose: 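Knock-downs reducing store-operated calcium influx in Drosophila cells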 (primary screen)
- Cell system: Drosophila S2R+ cells
- Reagent: long dsRNA against Drosophila genes, about 0.25 µg dsRNA per well, roughly 10,000 cells
- Timing: 5 days of knock-down before the calcium assay
- Treatment: thapsigargin (SERCA pump blocker) to empty calcium stores; entry signal taken 4 min after adding it
- Read-out: 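Per-well fluo-4 fluorescence in two replicates, unnormalised, measured in resting cells and 4 min after store depletion by the SERCA blocker thapsigargin; ratio of the two present in few wells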
- Reading the numbers: calcium entry signal: higher = stronger calcium signal after store depletion; resting calcium signal: higher = higher resting calcium signal
- Units: calcium entry signal in fluorescence units; resting calcium signal in fluorescence units
- Rule for the call: 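Called when the plate z-score of the entry-to-rest ratio, mean of duplicates, falls below −3; wells with low overall dye signal (Fmax z below −2) or more than five off-targets excluded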
- Meaning of the calls: active = strongly reduced calcium entry; inactive = no strong reduction

aust | calcium entry signal, replicate 1: 2.75e7; calcium entry signal, replicate 2: 4.51e7; resting calcium signal, replicate 1: 1.38e7; resting calcium signal, replicate 2: 2.04e7; outcome: inactive
RpL35A | calcium entry signal, replicate 1: 1.27e7; calcium entry signal, replicate 2: 1.56e7; resting calcium signal, replicate 1: 8.83e6; resting calcium signal, replicate 2: 1.06e7; outcome: inactive
CG45105 #1 | calcium entry signal, replicate 1: 3.49e7; calcium entry signal, replicate 2: 3.45e7; resting calcium signal, replicate 1: 1.66e7; resting calcium signal, replicate 2: 6.55e7; outcome: inactive
CG45105 #2 | calcium entry signal, replicate 1: 2.69e7; calcium entry signal, replicate 2: 2.49e7; resting calcium signal, replicate 1: 5.78e7; resting calcium signal, replicate 2: 1.38e7; outcome: inactive
Acyp | calcium entry signal, replicate 1: 4.58e7; calcium entry signal, replicate 2: 2.63e7; resting calcium signal, replicate 1: 1.91e7; resting calcium signal, replicate 2: 1.27e7; outcome: inactive
CG16717 | calcium entry signal, replicate 1: 2.81e7; calcium entry signal, replicate 2: 4.02e7; resting calcium signal, replicate 1: 1.56e7; resting calcium signal, replicate 2: 1.63e7; outcome: inactive
CG30087 | calcium entry signal, replicate 1: 4.43e7; calcium entry signal, replicate 2: 4.05e7; resting calcium signal, replicate 1: 2.40e7; resting calcium signal, replicate 2: 1.81e7; outcome: inactive
CG6106 | calcium entry signal, replicate 1: 4.34e7; calcium entry signal, replicate 2: 3.93e7; resting calcium signal, replicate 1: 2.21e7; resting calcium signal, replicate 2: 1.70e7; outcome: inactive
Smurf | calcium entry signal, replicate 1: 5.13e7; calcium entry signal, replicate 2: 6.56e7; resting calcium signal, replicate 1: 2.42e7; resting calcium signal, replicate 2: 3.20e7; outcome: inactive
Pfk | calcium entry signal, replicate 1: 3.44e7; calcium entry signal, replicate 2: 3.96e7; resting calcium signal, replicate 1: 2.03e7; resting calcium signal, replicate 2: 2.10e7; outcome: inactive
etaTry | calcium entry signal, replicate 1: 3.00e7; calcium entry signal, replicate 2: 4.46e7; resting calcium signal, replicate 1: 1.56e7; resting calcium signal, replicate 2: 1.76e7; outcome: inactive
CHOp24 | calcium entry signal, replicate 1: 3.43e7; calcium entry signal, replicate 2: 3.10e7; resting calcium signal, replicate 1: 1.74e7; resting calcium signal, replicate 2: 1.71e7; outcome: inactive
pyd3 #1 | calcium entry signal, replicate 1: 3.07e7; calcium entry signal, replicate 2: 6.66e7; resting calcium signal, replicate 1: 1.19e7; resting calcium signal, replicate 2: 2.77e7; outcome: inactive
pyd3 #2 | calcium entry signal, replicate 1: 3.96e7; calcium entry signal, replicate 2: 2.86e7; resting calcium signal, replicate 1: 2.37e7; resting calcium signal, replicate 2: 1.52e7; outcome: inactive
Madm | calcium entry signal, replicate 1: 5.32e7; calcium entry signal, replicate 2: 3.50e7; resting calcium signal, replicate 1: 2.62e7; resting calcium signal, replicate 2: 1.83e7; outcome: inactive
Gr98c | calcium entry signal, replicate 1: 3.92e7; calcium entry signal, replicate 2: 6.41e7; resting calcium signal, replicate 1: 1.92e7; resting calcium signal, replicate 2: 3.43e7; outcome: inactive
Hus1-like | calcium entry signal, replicate 1: 2.94e7; calcium entry signal, replicate 2: 4.76e7; resting calcium signal, replicate 1: 1.52e7; resting calcium signal, replicate 2: 2.15e7; outcome: inactive
Galphaf | calcium entry signal, replicate 1: 3.92e7; calcium entry signal, replicate 2: 8.17e7; resting calcium signal, replicate 1: 2.05e7; resting calcium signal, replicate 2: 2.84e7; outcome: inactive
Chd64 | calcium entry signal, replicate 1: 5.02e7; calcium entry signal, replicate 2: 3.68e7; resting calcium signal, replicate 1: 3.45e7; resting calcium signal, replicate 2: 1.55e7; outcome: inactive
Ccp84Ag #1 | calcium entry signal, replicate 1: 4.58e7; calcium entry signal, replicate 2: 2.89e7; resting calcium signal, replicate 1: 2.08e7; resting calcium signal, replicate 2: 1.39e7; outcome: inactive
Ccp84Ag #2 | calcium entry signal, replicate 1: 4.28e7; calcium entry signal, replicate 2: 4.20e7; resting calcium signal, replicate 1: 2.66e7; resting calcium signal, replicate 2: 2.06e7; outcome: inactive

Part of the list above, set out differently:
{"predicted target": "Chd64", "dsRNA no.": 1, "calcium entry signal, replicate 1": 5.02e7, "calcium entry signal, replicate 2": 3.68e7, "resting calcium signal, replicate 1": 3.45e7, "resting calcium signal, replicate 2": 1.55e7, "outcome": "inactive"}
{"predicted target": "Ccp84Ag", "dsRNA no.": 1, "calcium entry signal, replicate 1": 4.58e7, "calcium entry signal, replicate 2": 2.89e7, "resting calcium signal, replicate 1": 2.08e7, "resting calcium signal, replicate 2": 1.39e7, "outcome": "inactive"}
